Screen size: about 320,000 compounds; about 22,000 (6.9%) were called active. The shares of active, inactive and inconclusive entries below differ from those in the screen. Calls come from the whole dose curve; as a rule, active = well fitted inhibition curve with a large enough effect; inconclusive = small, poorly fitted or top-dose-only effect, or another doubt; inactive = no such curve, though single readings can be large or run the other way. Potencies beside an inconclusive call are fits to weak or partial responses and may not hold up. Where a SMILES comes first, the peptide text is derived from it. The star is where a group is joined. Boc = CC(C)(C)OC(=O)*
Assay: Primary qHTS for delayed death inhibitors of the malarial parasite plastid, 96 hour incubation
Conditions: P. falciparum luciferase reporter growth; series mostly up to 28.7 µM
Method in brief: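 96 h incubation, 37 C, 5% CO2, of luciferase-reporter P. falciparum-infected RBCs (2% hematocrit, 0.05% parasitemia final) with test compounds; endpoint luminescence.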
Potency is the fitted concentration of half-maximal effect.

Row | Structure (SMILES) | Potency
1 | CCCC(=O)O[C@]1(C(=O)CCl)[C@@H](C)C[C@H]2[C@@H]3CCC4=CC(=O)C=C[C@]4(C)[C@@]3(F)C(=O)C[C@@]21C | active: 1.31 µM
2 | CCOc1ccc(-c2ccc(C=O)o2)c([N+](=O)[O-])c1 | inconclusive: 1.65 µM [inhibitor, partial curve, poor fit]
3 | CCCNC(=O)c1ccc(N2CCC3(CC2)CC(c2ccccc2)=NO3)c(N)c1 | inconclusive: 11.7 µM [inhibitor, single point]
4 | Cc1cc(=O)oc2cc(Oc3ccc([N+](=O)[O-])cc3[N+](=O)[O-])ccc12 | inconclusive: 0.117 µM [inhibitor, full curve, poor fit]
5 | CCCCN(CCCC)CCNC(=O)CN1C(=O)CSc2ccc(S(=O)(=O)N3CCCCC3)cc21 | inconclusive: 18.5 µM [inhibitor, single point]
6 | COc1cc2c(cc1OC)C(C)N(C(=O)c1cc3c(s1)-c1ccccc1OC3)CC2 (configuration not stated) | inactive
7 | N#Cc1cnn(-c2ccccc2)c1N | inactive
8 | O=C(Nc1ccccc1)N(Cc1ccc(Cl)cc1)CC(O)C(F)(F)F (configuration not stated) | inactive
9 | Cc1cc(Cl)c(S(=O)(=O)NCc2cccnc2)cc1OCC(=O)NC1CCCCC1 | inconclusive: 14.7 µM [inhibitor, single point]
10 | COC(=O)C1CN(C(=O)COc2cc(C)cc(C)c2)c2ccccc2O1 (configuration not stated) | inconclusive: 1.47 µM [inhibitor, partial curve, poor fit]
11 | Cc1cccc(-c2c3c(=O)n(C)c(=O)n(C)c3cn2C2CCCCC2)c1 | inconclusive: 18.5 µM [inhibitor, partial curve, poor fit]
12 | CCCC[C@@H]1C[C@H]1[C@@H](NC(=O)c1ccccc1)c1ccccc1C(F)(F)F | inconclusive: 18.5 µM [inhibitor, single point]
13 | COc1ccc(-n2c(SCc3cccnc3)nc3c(c2=O)SCC3)cc1OC | inconclusive: 18.5 µM [inhibitor, single point]
14 | COc1ccc(/C=C/C(=O)NC(=S)NNC(=O)c2cccnc2)cc1 | inconclusive: 9.28 µM [inhibitor, single point]
15 | C#CCOCCOCCOCCNc1nc(N2CCOCC2)nc(N2CCN(C(=O)CCCCCCCCCCNC(=O)[C@@H](CCC(=O)O)n3cc(CCCCCN)nn3)CC2)n1 | inconclusive: 0.415 µM [inhibitor, full curve]
16 | N#C/C(=C/c1cccn1-c1cccc(C(=O)O)c1)c1ccc(F)cc1 | inactive
17 | Cn1cccc1/C=N/NC(=O)Cc1ccccc1 | inconclusive: 4.15 µM [inhibitor, single point]
18 | Cn1cc(C(C[N+](=O)[O-])c2ccccc2)c2ccccc21 (configuration not stated) | inactive
19 | Cc1ccc(C2SCC(=O)N2Cc2cn3ccsc3n2)o1 (configuration not stated) | active: 14.7 µM
20 | Cc1oc(-c2ccccc2F)nc1CS(=O)CC(=O)N1CCC2(CC1)OCCO2 (configuration not stated) | inconclusive: 16.5 µM [inhibitor, partial curve, poor fit]
21 | Nc1nc(Br)c2c(F)cccc2c1-c1ccc(F)cc1 | inconclusive: 4.65 µM [inhibitor, partial curve, poor fit]
22 | CC(=O)N1c2ccccc2C2(O)N=C(C)SC12 (configuration not stated) | inactive
23 | O=C(NS(=O)(=O)Oc1cccc(Cl)c1Cl)OC[C@@H]1CCCN2CCCCC12 (some centres not stated) | inconclusive: 4.15 µM [inhibitor, partial curve, poor fit]

Row | Structure (SMILES) | Potency
24 | CN1CCN(C(=S)NC(=O)c2ccccc2Cl)CC1 | inactive
25 | CC1CC(C)CN(C(=O)c2nn(C)c3c2CSc2ccccc2-3)C1 (configuration not stated) | active: 5.86 µM
26 | Cc1c(Cl)cccc1NC(=O)CNC(=O)Cc1c[nH]c2ccccc12 | inconclusive: 0.104 µM [inhibitor, full curve, poor fit]
27 | Fc1ccc(-c2nc3ccccc3c3nc4ccccc4n23)cc1 | inconclusive: 13.1 µM [inhibitor, single point]
28 | Cc1c(NC(=O)C(C)OC(=O)CCc2ccccc2)c(=O)n(-c2ccccc2)n1C (configuration not stated) | inconclusive: 4.15 µM [inhibitor, single point]
29 | Nc1ccc(N2CCN(c3cccc(Cl)c3)CC2)cc1 | inconclusive: 9.28 µM [inhibitor, partial curve, poor fit]
30 | Cc1cccc(NC(=O)Nc2cccc(C)n2)n1 | inconclusive: 13.1 µM [inhibitor, single point]
31 | Cn1c(N)c(C(=O)CSc2nc3ccccc3c(=O)n2CCCN2CCOCC2)c(=O)n(C)c1=O | inactive
32 | CN(C)C/C=C(/c1ccc(Br)cc1)c1cccnc1 | active: 15.1 µM
33 | CNC(=O)c1c(NC(=O)CCS(=O)(=O)c2ccccc2)sc2c1CCN(C(=O)OC)C2 | inconclusive: 9.28 µM [inhibitor, single point]
34 | O=C(NCc1ccc2c(c1)OCO2)C1CCCN(S(=O)(=O)c2cccnc2)C1 (configuration not stated) | inconclusive: 18.5 µM [inhibitor, single point]
35 | CC(=O)c1ccc(S(=O)(=O)N2CCN(C(=O)c3ccc(-n4cncn4)c([N+](=O)[O-])c3)CC2)cc1 | inconclusive: 5.86 µM [inhibitor, partial curve, poor fit]
36 | CCCCNC(=O)CN(c1ccc(Cl)c(Cl)c1)S(C)(=O)=O | inconclusive: 13.1 µM [inhibitor, partial curve, poor fit]
37 | CCOC(=O)c1cc(-c2ccccc2)sc1NC(=O)C(C)OC(=O)c1cccnc1Cl (configuration not stated) | active: 9.28 µM
38 | O=C(Nc1ccc(N2CCN(C(=O)c3ccccc3)CC2)cc1)c1ccc2c(c1)OCCO2 | inconclusive: 8.28 µM [inhibitor, partial curve, poor fit]
39 | Cc1ccc(/C=C/C(=O)O)cc1S(=O)(=O)NC1CCS(=O)(=O)C1 (configuration not stated) | inactive
40 | CCOc1ccc(NS(=O)(=O)c2ccc(C(=O)N3CCCC(C)C3)cc2)cc1 (configuration not stated) | inconclusive: 16.5 µM [inhibitor, single point]
41 | CCC(CC)=NNC(=O)c1ccccc1OCc1ccc(F)cc1 | inconclusive: 16.5 µM [inhibitor, single point]
42 | CC(C)C[C@H](NC(=O)OC(C)(C)C)C(=O)N/N=C/c1ccc2nccnc2c1 | inconclusive: 0.0029 µM [inhibitor, full curve, poor fit]
43 | O=C(Nc1cccc(S(=O)(=O)Nc2ccccc2Cl)c1)c1ccc(Cl)nc1 | inactive
44 | Cc1nc(NC(C)c2ccccc2)sc1C(=O)Nc1ccccc1 (configuration not stated) | inactive
45 | COc1ccccc1Nc1nc(N)nc(CSC(=S)N2CCOCC2)n1 | inactive
46 | O=[N+]([O-])c1ccc(Oc2ccc(S(=O)(=O)N3CCOCC3)cc2)cc1 | inconclusive: 0.117 µM [inhibitor, full curve, poor fit]

Row | Structure (SMILES) | Potency
47 | CCN(CC)C(=O)c1ccc(COc2ccc(Cl)c(C)c2)o1 | inconclusive: 18.5 µM [inhibitor, single point]
48 | Cc1ccc(NC(=O)CN(C)C(=O)CSc2nc3ccccc3c(=O)n2Cc2ccco2)cc1 | inconclusive: 1.17 µM [inhibitor, partial curve]
49 | CC(=O)c1oc2ccccc2c1NC(=O)COC(=O)c1ccc(-n2nc(C)cc2C)cc1 | inconclusive: 13.1 µM [inhibitor, single point]
50 | CC(=O)c1cn(CC(=O)Nc2ccccc2C(F)(F)F)c2ccccc12 | inconclusive: 18.5 µM [inhibitor, single point]
51 | COc1ccc(-n2c(SCc3nnc(-c4ccccc4)o3)nnc2-c2ccccc2)cc1 | inconclusive: 8.28 µM [inhibitor, partial curve, poor fit]
52 | Cc1c(N2C(=O)c3ccc(Br)cc3C2=O)c(=O)n(-c2ccccc2)n1C | inconclusive: 10.4 µM [inhibitor, single point]
53 | O=C(CN1CCN(CC(=O)Nc2ccccn2)CC1)Nc1ccccn1 | inconclusive: 10.4 µM [inhibitor, single point]
54 | O=C(NNC1=NS(=O)(=O)c2ccccc21)c1cccc([N+](=O)[O-])c1 | inconclusive: 1.47 µM [inhibitor, partial curve]
55 | COc1cccc(C2=NOC(C(=O)Nc3cccnc3)C2)c1 (configuration not stated) | inactive
56 | O=C(NNc1ccnc2cc(Cl)ccc12)C1CCCCC1 | active: 1.04 µM
57 | COCCCNC(=O)CCn1c(=O)c2ccccc2n(CC(=O)Nc2c(C)cccc2C)c1=O | active: 9.28 µM
58 | CC(=O)OCc1cc(=O)n(C)c(=O)n1C | inconclusive: 14.7 µM [inhibitor, single point]
59 | CCOC(=O)C(Cc1ccc(O)cc1)NC(=O)CNC(=O)C(CC(C)C)NC(=O)OC(C)(C)C (stereo not drawn) (Boc-Leu-Gly-Tyr-OEt; configuration not given here) | inconclusive: 10.4 µM [inhibitor, single point]
60 | C/C(=N\NC(=O)CSc1nc2ccccc2[nH]1)c1ccncc1 | inactive
61 | CNc1oc(Cc2ccccc2)nc1S(=O)(=O)c1ccc(Cl)cc1 | inconclusive: 0.738 µM [inhibitor, full curve]
62 | COC(=O)CSc1nnc2n1C(C)(C)Cc1ccccc1-2 | inactive
63 | O=C1/C(=C\c2cccc(O)c2O)SC(=S)N1Cc1ccccc1 | inconclusive: 9.28 µM [inhibitor, partial curve]
64 | COc1ccc(S(=O)(=O)N/N=c2\oc3c(OC)cccc3cc2S(=O)(=O)c2ccc(C)cc2)cc1OC | inactive
65 | O=S(=O)(Nc1cc(Cl)ccc1N1CCCCC1)c1cccs1 | inconclusive: 18.5 µM [inhibitor, single point]
66 | Cc1ccccc1CNc1nnnn1C | inactive
67 | O=C1C(C=Nc2ccc(F)cc2)=C(O)c2ccccc21 | inconclusive: 0.928 µM [inhibitor, full curve, poor fit]

By substructure: the compounds so far containing a thiophene ring, fused or not
Row | Structure (SMILES) | Potency
6 | COc1cc2c(cc1OC)C(C)N(C(=O)c1cc3c(s1)-c1ccccc1OC3)CC2 (configuration not stated) | inactive
33 | CNC(=O)c1c(NC(=O)CCS(=O)(=O)c2ccccc2)sc2c1CCN(C(=O)OC)C2 | inconclusive: 9.28 µM [inhibitor, single point]
37 | CCOC(=O)c1cc(-c2ccccc2)sc1NC(=O)C(C)OC(=O)c1cccnc1Cl (configuration not stated) | active: 9.28 µM
65 | O=S(=O)(Nc1cc(Cl)ccc1N1CCCCC1)c1cccs1 | inconclusive: 18.5 µM [inhibitor, single point]

— PubChem BioAssay AID504834 (National Center for Advancing Translational Sciences (NCATS), 2011)
